This is an account of results in publication PMC4420617.

Chains of the proteins cited; added tags and fusions are not shown. Lines headed by an entry give the natural chain unless they say otherwise; changes in a name come on top.
UniProt Q96ST3: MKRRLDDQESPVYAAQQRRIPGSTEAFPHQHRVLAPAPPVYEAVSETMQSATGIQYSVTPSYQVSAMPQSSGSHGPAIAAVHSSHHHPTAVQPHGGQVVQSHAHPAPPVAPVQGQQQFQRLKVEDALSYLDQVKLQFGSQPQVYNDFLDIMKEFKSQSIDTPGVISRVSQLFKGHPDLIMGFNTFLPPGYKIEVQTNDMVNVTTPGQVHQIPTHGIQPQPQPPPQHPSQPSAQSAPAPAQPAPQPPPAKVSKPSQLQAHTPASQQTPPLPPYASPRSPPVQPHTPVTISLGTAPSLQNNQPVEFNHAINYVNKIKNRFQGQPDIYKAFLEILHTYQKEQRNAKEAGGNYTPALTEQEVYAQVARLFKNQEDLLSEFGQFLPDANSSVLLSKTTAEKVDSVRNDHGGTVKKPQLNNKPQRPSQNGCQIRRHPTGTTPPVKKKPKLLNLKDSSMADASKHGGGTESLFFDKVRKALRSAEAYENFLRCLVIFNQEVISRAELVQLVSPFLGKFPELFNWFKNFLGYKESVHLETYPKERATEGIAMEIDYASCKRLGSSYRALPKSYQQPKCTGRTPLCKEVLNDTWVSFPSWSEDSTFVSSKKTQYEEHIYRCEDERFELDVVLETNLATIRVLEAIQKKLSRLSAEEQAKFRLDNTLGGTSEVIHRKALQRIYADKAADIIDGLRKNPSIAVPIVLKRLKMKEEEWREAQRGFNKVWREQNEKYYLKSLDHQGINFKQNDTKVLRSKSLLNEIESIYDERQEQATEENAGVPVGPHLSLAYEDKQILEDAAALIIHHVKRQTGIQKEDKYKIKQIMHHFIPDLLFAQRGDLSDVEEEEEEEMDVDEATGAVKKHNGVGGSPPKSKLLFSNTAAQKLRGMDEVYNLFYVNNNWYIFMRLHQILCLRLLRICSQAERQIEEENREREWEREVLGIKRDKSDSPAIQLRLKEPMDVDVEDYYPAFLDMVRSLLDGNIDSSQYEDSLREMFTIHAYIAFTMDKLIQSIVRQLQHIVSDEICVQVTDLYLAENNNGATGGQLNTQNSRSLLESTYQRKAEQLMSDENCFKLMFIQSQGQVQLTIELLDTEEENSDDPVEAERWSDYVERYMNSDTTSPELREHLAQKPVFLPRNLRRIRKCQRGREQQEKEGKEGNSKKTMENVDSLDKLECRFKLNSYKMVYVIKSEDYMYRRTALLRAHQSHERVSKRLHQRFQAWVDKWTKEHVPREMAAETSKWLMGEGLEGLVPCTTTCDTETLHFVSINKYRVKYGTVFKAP
UniProt Q13547: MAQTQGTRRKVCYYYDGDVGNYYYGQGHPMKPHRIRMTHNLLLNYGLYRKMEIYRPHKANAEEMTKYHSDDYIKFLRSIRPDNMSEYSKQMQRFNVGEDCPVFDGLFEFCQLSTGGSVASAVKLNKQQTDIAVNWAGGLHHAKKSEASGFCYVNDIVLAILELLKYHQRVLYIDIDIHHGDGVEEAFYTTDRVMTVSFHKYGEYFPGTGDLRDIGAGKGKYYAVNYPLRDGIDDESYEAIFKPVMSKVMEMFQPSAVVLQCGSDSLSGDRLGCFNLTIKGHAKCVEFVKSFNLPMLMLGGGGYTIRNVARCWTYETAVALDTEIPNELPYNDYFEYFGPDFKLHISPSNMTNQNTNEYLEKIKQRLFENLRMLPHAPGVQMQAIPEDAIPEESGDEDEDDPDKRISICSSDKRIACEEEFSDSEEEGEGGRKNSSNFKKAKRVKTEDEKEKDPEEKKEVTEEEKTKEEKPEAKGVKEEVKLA

For assay [1], the target named is Sin3A HDAC-interaction domain (HID), flag-tagged (UniProt Q96ST3). Kind of assay: co-IP; binary co-expression of HDAC1 and Sin3A without SDS3 in HEK 293F, purified by these protocols; details not told; limited yields.
For assay [2] the target is unchanged. As to the kind of experiment: co-IP; flag-tagged Sin3A-HID co-expressed with untagged HDAC1 and SDS3 in HEK 293F; whole cell extract on anti-flag agarose resin, 30-120 min at 4 °C; 100 mM potassium acetate, 50 mM Tris pH 7.5, 5% glycerol, 0.3% Triton X-100; washes up to 300 mM potassium acetate; eluted by TEV cleavage; SDS-PAGE, Coomassie stain.

These are yes or no findings as the source states them, for the method shown. In cells and extracts the contact can be indirect. Binding calls can cover weak binding; strength is not graded here.

On to “Histone Deacetylase 1 (from UniProt Q13547 1-482) (enzyme)”, for which the binding entry in assay [1] and in assay [2] was “binds” each time.

B1: Suppressor of Defective Silencing 3 (protein, UniProt Q9H7L9 1-328)
chain: MSAAGLLAPAPAQAGAPPAPEYYPEEDEELESAEDDERSCRGRESDEDTEDASETDLAKHDEEDYVEMKEQMYQDKLASLKRQLQQLQEGTLQEYQKRMKKLDQQYKERIRNAELFLQLETEQVERNYIKEKKAAVKEFEDKKVELKENLIAELEEKKKMIENEKLTMELTGDSMEVKPIMTRKLRRRPNDPVPIPDKRRKPAPAQLNYLLTDEQIMEDLRTLNKLKSPKRPASPSSPEHLPATPAESPAQRFEARIEDGKLYYDKRWYHKSQAIYLESKDNQKLSCVISSVGANEIWVRKTSDSTKMRIYLGQLQRGLFVIRRRSAA
Take B1: the binding entry in assay [2] is recorded as “binds”.
